# Data as given in publication PMC4196195.
# Chains of the proteins cited; added tags and fusions are not shown. Residues count along the entry.
# UniProt P00519, residues 61-121: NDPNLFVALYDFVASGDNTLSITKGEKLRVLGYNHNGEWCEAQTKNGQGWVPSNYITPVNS
# No constants are given. Whether binding was seen depends on the method and setting. Some results given as binding are weak or reduced against the parent protein; the word gives no strength.
# B1: Tat-Apoptin (protein, UniProt Q99152 1-121)
# chain: MNALQEDTPPGPSTVFRPPTSSRPLETPHCREIRIGIAGITITLSLCGCANARAPTLRSATADNSESTGFKNVPDLRTDQPKPPSKKRSCDPSEYRVSELKESLITTTPSRPRTAKRRIRL
# Biological target: SH3 domain of Abl (TransSignal SH3 Domain Array1, spots D 3, 4) (UniProt P00519)
# Experiment: peptide or protein array; TransSignal SH3 Domain Array1 membrane (Panomics), SH3 domains spotted in duplicate, incubated with purified Tat-Apoptin; high stringency; chemiluminescence on film; both purified
binder,measurement,value
B1,binding,binds
